Source: patent US7767204B2, “Method and composition for protecting neuronal tissue from damage induced by elevated glutamate levels” (Yeda Research And Development Co. Ltd., priority 2002, dated 2010)
At least one structure is not confirmed: it was looked up by name or label, or the drawing left a doubt. Some entries share one result that the patent states for a list of compounds.

Tests used:
[1] = tested on: rat blood plasma glutamate (GOT, GPT); assay: Glutamate conversion in rat blood plasma by pyruvate and oxaloacetate analogues; type: biochemical; conditions: for % of remaining Glutamate: rat blood plasma, 1 mM of each co-substrate
Procedure: A number of glutamate modifying enzymes were tested for their ability to enhance glutamate conversion in rat blood plasma. Table 1 below summarizes the results obtained with 1 mM of each co-substrate.

[2] = tested on: blood glutamate (blood resident GPT and GOT); assay: In-vitro scavenging of glutamate in whole rat blood by activation of resident enzymes; type: biochemical; conditions: 37° C., 1 mM co-substrate and/or 2.5 u/ml GPT
Procedure: (§1) Induction of rat blood glutamate metabolism and glutamate concentration determination—Fresh rat blood samples incubated at 37° C. were supplemented every 15 minutes or as noted with oxaloacetate and/or pyruvate (final concentration of 1 mM at pH 7.4).
(§2) At indicated time intervals, 150 μl aliquots were removed and centrifuged at 1,300×g for 7 minutes. Plasma volume (i.e., supernatant) was measured and was combined with identical volume of perchloric acid (PCA) to precipitate protein content. Precipitation was allowed to proceed for 10 minutes on ice and thereafter samples were centrifuged. Cell pellet (i.e., erythrocytes, lymphocytes and platelets) was lysed by osmotic shock following resuspension in double distilled water up to a final volume of 150 μl. A second step of protein precipitation was then performed by adding 150 μl of PCA [[…]]. Plasma and cell PCA-precipitated fractions were centrifuged at 16,000×g for 10 minutes and pellets were discarded.
Supernatant glutamate concentration was determined according to the fluorometric procedure of Graham and Aprison [(1996) Anal. Biochem. 15(3):487-97]. […] Fluorescence was measured at 460 nm following excitation at 350 nm. […]

[3] = tested on: glutamate in blood cells and plasma (GPT, GOT, 2-ketoglutarate dehydrogenase, GDH); assay: In-vitro glutamate levels and conversion in blood cell fraction and plasma; type: biochemical, rat; conditions: for plasma glutamate concentration: repeated additions of 1 mM, in vitro; for increase in rate of glutamate conversion: 10 μM thiaminepyrophosphate or 0.5 mM lipoamide with 1 mM pyruvate and 1 mM oxaloacetate; for increase in conversion of glutamate: added to 1 mM pyruvate and 1 mM oxaloacetate, 60 minutes, increasing concentrations
Procedure: as §1, §2
Supernatant glutamate concentration was determined according to the fluorometric procedure of Graham and Aprison [(1996) Anal. Biochem. 15(3):487-97]. In brief: 20 μl aliquot of PCA precipitated fraction was added to 480 μl HG buffer containing 15 u of glutamate dehydrogenase in 0.2 mM NAD, 0.3 M glycine, 2.4% hydrazine hydrate adjusted to pH 6.8 with H2SO4 [1 N] and incubated at room temperature for 30-45 minutes. Fluorescence was measured at 460 nm following excitation at 350 nm. All measurements were performed alongside a glutamate standard curve at a glutamate concentration range of 0-6 μM. All glutamate measurements were performed in duplicates.
Results—Glutamate levels were therefore determined individually in blood cell fractions (closed symbols) and in plasma (open symbols), following repeated additions (arrows) of 1 mM pyruvate (squares), 1 mM oxaloacetate (triangles) or of a mixture of 1 mM pyruvate and 1 mM oxaloacetate (diamonds) (FIG. 2A). Glutamate determination was conducted as described in Example 1.

[4] = tested on: brain to blood glutamate efflux; assay: Brain-to-blood [3H]Glu efflux after intracerebroventricular injection

Structure (SMILES)	% of remaining Glutamate [1] [%]	blood glutamate levels [2]	plasma glutamate concentration [3]	increase in rate of glutamate conversion [3]	increase in conversion of glutamate [3]	also measured
O=C(O)CC(=O)C(=O)O [Oxaloacetate]	34	greater decline in glutamate levels	significant reduction in plasma glutamate concentration	–	–	decrease in plasma glutamate levels ([1]; 0.5 mM, rat plasma): 40%
CC(=O)C(=O)O [Pyruvate]	59	decrease in glutamate levels	significantly increased plasma glutamate concentration	–	–	–
N[C@@H](CCC(=O)O)C(=O)O [[^3H] glutamate, glutamate]	–	–	–	–	–	half-life of elimination of radioactivity from brain [4]: 1.04 ± 0.12 h
NC(=O)CCCCC1CCSS1 (stereo not drawn) [lipoamide]	–	–	–	20-50%	15-50%	–
Cc1ncc(C[n+]2csc(CCO[P@](=O)(O)OP(=O)(O)O)c2C)c(N)n1 [thiamine pyrophosphate]	–	–	–	20-50%	15-50%	–
